PubChem BioAssay AID540303 (National Center for Advancing Translational Sciences (NCATS), 2011)
In all, about 330,000 compounds went through this assay and about 1,000 (0.3%) were called active. Inconclusive means that the source gave no clear call. Such entries were picked first, then a sample of the others. Calls follow the shape of the dose curve; as a rule, active = well fitted inhibition curve with a large enough effect; inconclusive = small, poorly fitted or top-dose-only effect; inactive = no such curve, though single readings can be large or run the other way; tested in mouse RAW 264.7 cells. Potencies of inconclusive entries are doubtful fits and often do not repeat.
Potency is read from the fitted curve at half-maximal effect.

Assay: qHTS for Inhibitors of Cell Surface uPA Generation; also: nearly all actives have a fitted effect of over 55% in size
Conditions: cell surface uPA generation assay; series mostly up to 38.3 µM
Method in brief: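 RAW 264.7 cells (4000/well) were plated overnight at 37 C and then given compounds in a 1:5 series (up to 38.3 uM final) plus reagent for 24 h. Intracellular ATP was measured by ATP-Lite luminescence and stays elevated when uPA-dependent LF entry is blocked.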
In the case of O=C(Nc1nc(NC(=O)c2ccco2)n(-c2ccccc2)n1)c1ccccc1, the Potency is reported as inconclusive: 5.62 µM [inhibitor, single point]. In the case of O=C(Nc1ccc(O)cc1)c1ccccc1OCc1ccccc1, the Potency is reported as inconclusive: 5.01 µM [inhibitor, full curve]. For CCCC(=O)N(C1CC(C)C(C#N)(C#N)C1(C#N)C#N)N(C)C (stereo not given), the Potency was “inactive”. For CC(C)c1nnc(SCC(=O)NCc2ccc3c(c2)OCO3)n1C, the Potency was “inactive”. With COc1cc(C)cc(C(=O)C=Cc2ccccc2)c1O the Potency was “inactive”. In the case of CC1C(=O)Nc2ccc(S(=O)(=O)N3CCCCCC3)cc21 (stereo not given), the Potency is reported as inconclusive: 0.891 µM [inhibitor, full curve, poor fit]. In the case of COc1ccc2[nH]c(C(=O)N/N=C/c3ccccc3OC)cc2c1, the Potency is reported as inconclusive: 3.55 µM [inhibitor, single point]. With CC(C)c1ccc(/C=C2\SC(=O)N(CC(=O)NCCCn3ccnc3)C2=O)cc1 the Potency was inconclusive: 7.08 µM [inhibitor, partial curve, poor fit]. In the case of CCCc1ccc(-c2ccc(F)c(N)c2)nc1, the Potency is reported as inconclusive: 6.31 µM [inhibitor, partial curve]. With CN(C)c1ccc(N/C(N)=N/c2nc(C(F)(F)F)cc(C(F)(F)F)n2)cc1 the Potency was inconclusive: 10 µM [inhibitor, partial curve, poor fit]. With O=C(NC1CCCc2ccccc21)C1CCN(C(=O)c2sccc2-n2cccc2)CC1 (stereo not given) the Potency was inconclusive: 6.31 µM [inhibitor, partial curve, poor fit]. With CC(C)[C@@H](CO)NC(=O)c1ccc2c3n(nc2c1)-c1ccccc1CO3 the Potency was active: 1.26 µM. For COc1ccc(/C=N/NC(=O)CSCC(=O)Nc2ccccc2)cc1OC, the Potency was “inactive”. For O=C1N=c2ccccc2=C1c1sc(Nc2cccc(O)c2)nc1O, the Potency was inconclusive: 3.98 µM [inhibitor, partial curve]. In the case of Cc1cccc(NC(=O)CCN2C(=O)c3ccccc3S2(=O)=O)c1C, the Potency is reported as inconclusive: 10 µM [inhibitor, single point]. In the case of CC(=O)C(Cc1ccccc1)NC(=O)CCl (stereo not given), the Potency is reported as inconclusive: 8.91 µM [inhibitor, partial curve, poor fit]. In the case of CCCCCCSc1ccc(-c2nc3cc(C)ccn3c2NC2CCCCC2)cc1, the Potency is reported as “inactive”. For Cc1ccc(NC(=O)CC2Oc3ccc(C)cc3NC2=O)c(C)c1 (stereo not given), the Potency was inconclusive: 10 µM [inhibitor, partial curve, poor fit]. In the case of CN(Cc1ccccc1)c1nc2c(c(=O)[nH]c(=O)n2C)n1CCOc1ccccc1, the Potency is reported as “inactive”. In the case of O=C(/C=C/c1c(F)cccc1Cl)c1ccc(F)cc1, the Potency is reported as “inactive”. With CCN(CC)CCCNc1nc2cc(OC)c(OC)cc2c2nc(-c3ccccc3)nn12 the Potency was “inactive”. For Cc1cc(C)cc(OCC(=O)Nc2cccc(S(=O)(=O)NC3=NCCC3)c2)c1, the Potency was inconclusive: 1.12 µM [inhibitor, single point]. In the case of CC(C)C[C@H](NC(=O)c1[nH]cnc1C(=O)N[C@H](C)c1ccccc1)C(=O)OC(C)(C)C, the Potency is reported as inconclusive: 12.6 µM [inhibitor, single point]. With S=C(NC1CCCCC1)N1CCc2[nH]c3ccccc3c2C1 the Potency was “inactive”. With COC1C=COC2(C)Oc3c(C)c(O)c4c(O)c(c(CN5CCN(C)CC5)c(O)c4c3C2=O)NC(=O)C(C)=CC=CC(C)C(O)C(C)C(O)C(C)C(OC(C)=O)C1C (stereo not given) the Potency was “inactive”. For COc1ccc(-n2c(NNC(C)=O)nc3sc4c(c3c2=O)CCCC4)cc1, the Potency was active: 7.94 µM. In the case of Cc1ccc(NC(=O)CN(C)C(=O)COC(=O)c2ccc(Cl)cc2O)cc1, the Potency is reported as inconclusive: 12.6 µM [inhibitor, partial curve, poor fit]. For CCCCC[n+]1cccc2c3ccccc3ccc21, the Potency was inconclusive: 7.94 µM [inhibitor, partial curve]. For O=C(Cc1nc2ccccc2[nH]c1=O)c1ccc(Cl)cc1, the Potency was inconclusive: 10 µM [inhibitor, single point]. For O=C(NCc1ccccc1)C1=C[C@H](c2csc3ccccc23)C[C@H](OCc2ccc(CO)cc2)O1, the Potency was inconclusive: 12.6 µM [inhibitor, partial curve, poor fit]. For NC(=S)NCc1cccnc1, the Potency was inconclusive: 11.2 µM [inhibitor, single point]. For O=c1c2ccccc2oc2cc(-c3ccc4[nH]ccc4c3)ccc12, the Potency was inconclusive: 2 µM [inhibitor, full curve, poor fit]. With COc1cc2[nH]c(=O)n(CCC(=O)N3CCC(N4CCCCC4)CC3)c(=O)c2cc1OC the Potency was “inactive”. In the case of O=C(N/N=C/c1cccs1)C1COc2ccccc2O1 (stereo not given), the Potency is reported as inconclusive: 5.01 µM [inhibitor, partial curve, poor fit]. With Cc1sc(NC(=O)c2cccs2)nc1-c1ccccc1 the Potency was “inactive”. In the case of CN1CCN(c2ncnc3c2cnn3-c2ccc(Cl)cc2)CC1, the Potency is reported as inconclusive: 1 µM [inhibitor, partial curve, poor fit]. For COc1cc(C)c(C(C)C)cc1S(=O)(=O)N1CCN(C)CC1, the Potency was “inactive”. In the case of CC(=O)OCC(=O)Nc1cc(S(=O)(=O)N2CCCCCC2)ccc1Cl, the Potency is reported as inconclusive: 3.16 µM [inhibitor, partial curve, poor fit]. For C=CCCC(=O)Nc1ccc(Br)cn1, the Potency was “inactive”. In the case of c1ccc(-c2ccccc2OCCN2CCCC2)cc1, the Potency is reported as “inactive”. With Cc1ccc(-n2cc(CN3CCN(C(=O)c4ncn[nH]4)CC3)c(-c3ccc(F)cc3)n2)cc1 the Potency was “inactive”. For COc1ccc(C(=O)COC(=O)CCC(=O)Nc2ccc(C(C)=O)cc2)cc1, the Potency was inconclusive: 6.31 µM [inhibitor, partial curve, poor fit]. With Cc1nnsc1S(=O)c1ccc(Cl)cc1 (stereo not given) the Potency was inconclusive: 2.51 µM [inhibitor, partial curve, poor fit]. In the case of Fc1cccc(/C=N/Nc2nccnc2Cl)c1, the Potency is reported as inconclusive: 12.6 µM [inhibitor, partial curve, poor fit]. In the case of COCCn1c(SCC(=O)/C=C2\N(C)c3ccccc3C2(C)C)nnc1-c1ccncc1, the Potency is reported as inconclusive: 7.94 µM [inhibitor, single point].
